The values below come from article PMC2973830.

These are yes or no findings as the source states them, for the method shown. Some binding calls cover weakened binding; strength is not graded here. Where a sequence is shown, tags or fusion partners need not be part of it.

The assay concerns the target T1, DIM-7 (as purified in the unpublished experiment) (N. crassa) (UniProt Q1K7K7).
T1 sequence: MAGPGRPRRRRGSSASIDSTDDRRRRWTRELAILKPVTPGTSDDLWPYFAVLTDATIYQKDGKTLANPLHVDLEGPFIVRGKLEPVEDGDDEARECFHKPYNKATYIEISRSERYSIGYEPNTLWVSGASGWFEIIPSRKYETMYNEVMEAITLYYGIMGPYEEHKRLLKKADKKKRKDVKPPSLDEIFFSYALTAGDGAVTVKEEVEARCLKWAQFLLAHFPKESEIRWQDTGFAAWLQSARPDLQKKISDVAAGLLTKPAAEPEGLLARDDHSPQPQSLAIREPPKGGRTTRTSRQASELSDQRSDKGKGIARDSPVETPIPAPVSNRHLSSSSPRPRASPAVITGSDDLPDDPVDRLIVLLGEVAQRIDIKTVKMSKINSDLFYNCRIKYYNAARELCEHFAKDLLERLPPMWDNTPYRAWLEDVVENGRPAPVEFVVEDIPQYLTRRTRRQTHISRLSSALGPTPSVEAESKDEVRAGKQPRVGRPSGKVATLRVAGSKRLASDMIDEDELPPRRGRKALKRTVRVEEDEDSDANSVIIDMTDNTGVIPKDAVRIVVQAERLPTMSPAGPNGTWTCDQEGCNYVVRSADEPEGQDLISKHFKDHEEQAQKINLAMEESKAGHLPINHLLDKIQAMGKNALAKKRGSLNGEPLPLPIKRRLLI
Description: co-purification (method not told); histones co-purified with DIM-7; unpublished data of Z. Lewis and E. Selker.

Regarding histone H2A (from UniProt Q8X132 1-134), the binding entry was “binds”.

B1: histone H2B (protein, UniProt P37210 1-137)
chain: MPPKPADKKPASKAPATASKAPEKKDAGKKTAASGDKKKRTKARKETYSSYIYKVLKQVHPDTGISNRAMSILNSFVNDIFERVATEASKLAAYNKKSTISSREIQTSVRLILPGELAKHAVSEGTKAVTKYSSSTK
Turning to B1, the binding entry was “binds”.
